In this test the target is nucleolin (NCL) (human (endogenous in U87MG)) (UniProt P19338). The experiment in a line: co-IP.

By UniProt entry, the sequences of proteins in these tests, tags left out.
UniProt P19338: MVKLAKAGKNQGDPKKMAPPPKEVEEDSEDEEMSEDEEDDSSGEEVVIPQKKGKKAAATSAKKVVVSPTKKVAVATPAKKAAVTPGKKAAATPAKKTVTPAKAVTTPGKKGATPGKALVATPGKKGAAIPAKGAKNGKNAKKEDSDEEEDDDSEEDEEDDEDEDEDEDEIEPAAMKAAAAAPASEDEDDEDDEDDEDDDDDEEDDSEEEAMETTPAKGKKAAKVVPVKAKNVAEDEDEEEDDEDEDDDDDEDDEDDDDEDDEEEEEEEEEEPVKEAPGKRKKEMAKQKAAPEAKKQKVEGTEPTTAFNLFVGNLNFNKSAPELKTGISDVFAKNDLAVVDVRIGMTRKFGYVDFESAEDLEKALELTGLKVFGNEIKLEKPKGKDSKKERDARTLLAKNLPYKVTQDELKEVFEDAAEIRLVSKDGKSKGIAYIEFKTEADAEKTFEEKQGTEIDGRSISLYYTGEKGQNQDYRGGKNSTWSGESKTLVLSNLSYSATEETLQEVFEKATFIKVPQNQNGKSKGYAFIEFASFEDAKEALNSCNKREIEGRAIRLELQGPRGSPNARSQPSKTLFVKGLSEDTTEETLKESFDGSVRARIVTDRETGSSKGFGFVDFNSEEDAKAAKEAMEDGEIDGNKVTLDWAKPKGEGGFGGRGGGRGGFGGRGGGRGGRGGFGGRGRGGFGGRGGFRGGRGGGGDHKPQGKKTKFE
UniProt Q00987: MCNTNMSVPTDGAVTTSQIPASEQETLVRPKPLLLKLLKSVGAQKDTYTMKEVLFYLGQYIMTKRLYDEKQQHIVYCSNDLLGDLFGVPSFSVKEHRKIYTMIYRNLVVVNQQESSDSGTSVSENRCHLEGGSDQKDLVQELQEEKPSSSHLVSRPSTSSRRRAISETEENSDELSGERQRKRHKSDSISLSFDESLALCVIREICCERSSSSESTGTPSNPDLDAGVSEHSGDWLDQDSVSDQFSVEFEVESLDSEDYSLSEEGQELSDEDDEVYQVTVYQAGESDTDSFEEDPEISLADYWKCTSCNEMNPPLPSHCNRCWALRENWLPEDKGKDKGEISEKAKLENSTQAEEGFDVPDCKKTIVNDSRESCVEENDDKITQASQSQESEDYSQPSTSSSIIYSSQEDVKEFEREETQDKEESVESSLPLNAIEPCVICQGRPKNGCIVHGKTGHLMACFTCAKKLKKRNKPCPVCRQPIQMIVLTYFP

Results are given in words; binding and its absence hold for the method and conditions named. In cells and extracts the contact can be indirect. Some results given as binding are weak or reduced against the parent protein; the word gives no strength.

Regarding “Murine double minute 2 (MDM2) (from UniProt Q00987 1-491) (enzyme)”, the binding result was “binds”.

Source of the values: doi:10.1101/2025.07.22.666084.
